Laboratory results taken from the supplement of paper PMC12889115.
This is one part of the list. These are raw signals, not scaled to a control.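 Primary screen: polymyxin B was added at a level permeabilizing Salmonella outer membranes while sparing inner membranes. DMSO wells, both with and without polymyxin B, established maximum growth. Plate-to-plate variation meant each plate was ranked on its own, and the lowest-OD600 compounds were selected as hits.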

Test system: Salmonella enterica serovar Typhimurium SL1344
Assay: bacterial growth OD600 after 18 h with compound and polymyxin B; higher = more bacterial growth (less inhibition)
Conditions: 50 µM, Mueller-Hinton broth

Compound	bacterial growth OD600 (polymyxin B 1 µg/mL)	bacterial growth OD600 (polymyxin B 0.75 µg/mL)
COC(=O)[C@@H](C)Nc1ccc(-c2nc(COc3ccccc3)no2)cn1	0.859	
CC(=O)c1cc(C(=O)N2CCCC(C(=O)c3cccc(C(F)(F)F)c3)C2)cs1 (stereo unspecified)	0.853	
COC(=O)CCC(=O)N1CCc2[nH]nc(-c3ccc4c(c3)OCO4)c2C1		0.847
COc1cc(NC(=O)CCC2CCCN(C(=O)CC3=CCCCC3)C2)cc(OC)c1 (stereo unspecified)	0.675	
Cc1cc2nc(N3CCC(N(C)Cc4ccco4)CC3)nc(C)c2cc1C		0.83
O=C(C1CCOCC1)N1CCCC(CCc2ccccc2F)C1 (stereo unspecified)		0.749
O=C(Nc1cccs1)NC1CCCN(C2CCCCCC2)C1 (stereo unspecified)	1.05	
Cc1noc(C)c1S(=O)(=O)NCc1cccnc1N1CCCCCCC1	0.752	
CC1(C)Cc2nc(C(C)(C)C)ncc2C(NS(=O)(=O)c2cccnc2)C1 (stereo unspecified)	0.871	
C=CCC(=O)N1CCC2(CCCN(Cc3ccc(F)cc3)C2=O)C1 (stereo unspecified)	1.05	
COCc1ccc(C(=O)Nc2ccc(-c3nc(CNC(=O)c4cc(C)on4)c(C)o3)cc2)o1		0.781
CCN(CC)c1ccc(C(=O)N2CCCCC2CCn2cccn2)cn1 (stereo unspecified)	0.004	
C=C(C)CN(C)CC1(O)CCCN(Cc2ccc(F)cc2)C1=O (stereo unspecified)	0.999	
CCN1CCC(C(=O)NC2CCCN(C3CCCCCC3)C2)CC1 (stereo unspecified)	0.836	
c1cc(C2CCCCC2)ccc1-c1cnnc(N2CCOCC2)n1		-0.001
Cc1ccc(F)c(CNC(=O)C2CC(Cc3cccc(F)c3)=NO2)c1F (stereo unspecified)		0.637
COc1ccc(O)c(CN2CCC(C(Cc3ccccc3F)N(C)Cc3cn(C)nc3C)CC2)c1 (stereo unspecified)		0.86
O=C(c1ccc(-c2ccccc2)cc1)C1CCCN(Cc2cccnc2)C1 (stereo unspecified)	0.068	
Cc1ccc2c(c1)CN(Cc1cc[nH]n1)CC(c1ccsc1)O2 (stereo unspecified)		0.895
CCOC(=O)C1(Cc2ccc(Cl)cc2)CCN(C(=O)C(=O)c2ccccc2)CC1		0.352
CN(C(=O)c1ccco1)C(Cc1ccc(F)cc1F)C1CCN(Cc2ccc3c(c2)CCO3)CC1 (stereo unspecified)		0.575

Some of the entries so far, in CSV form:
Compound,bacterial growth OD600 (polymyxin B 1 µg/mL),bacterial growth OD600 (polymyxin B 0.75 µg/mL)
COc1cc(NC(=O)CCC2CCCN(C(=O)CC3=CCCCC3)C2)cc(OC)c1 (stereo unspecified),0.675,
Cc1cc2nc(N3CCC(N(C)Cc4ccco4)CC3)nc(C)c2cc1C,,0.83
